{
  "source": "the supplement of paper PMC8728848",
  "assay_in_all_cases": "glycan array binding signal (z-score within array); higher = stronger binding",
  "conditions_in_all_cases": "glycan notation: IUPAC condensed, linker removed",
  "key": {"[1]": {"biological_target": "Gal(b1-4)GlcNAc(b1-3)Gal(b1-4)GlcNAc(b1-3)Gal(b1-4)GlcNAc(b1-3)Gal(b1-4)GlcNAc(b1-2)[Gal(b1-4)GlcNAc(b1-3)Gal(b1-4)GlcNAc(b1-3)Gal(b1-4)GlcNAc(b1-3)Gal(b1-4)GlcNAc(b1-6)]Man(a1-6)[Gal(b1-4)GlcNAc(b1-3)Gal(b1-4)GlcNAc(b1-3)Gal(b1-4)GlcNAc(b1-3)Gal(b1-4)GlcNAc(b1-2)Man(a1-3)]Man(b1-4)GlcNAc(b1-4)[Fuc(a1-6)]GlcNAc", "how_it_was_run": "(§1)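 Columns mapping to the same glycan were averaged after glycan names were converted to IUPAC-condensed notation. The data come from 3228 arrays in the Consortium for Functional Glycomics database, limited to those with an available protein sequence. Binding is reported as a within-array Z-score averaged across arrays of one protein sequence and across linkers.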"}, "[2]": {"biological_target": "Gal(b1-4)GlcNAc(b1-3)Gal(b1-4)GlcNAc(b1-3)Gal(b1-4)GlcNAc(b1-3)Gal(b1-4)GlcNAc(b1-3)Gal(b1-4)GlcNAc(b1-2)Man(a1-3)[Gal(b1-4)GlcNAc(b1-3)Gal(b1-4)GlcNAc(b1-3)Gal(b1-4)GlcNAc(b1-3)Gal(b1-4)GlcNAc(b1-3)Gal(b1-4)GlcNAc(b1-2)Man(a1-6)]Man(b1-4)GlcNAc(b1-4)GlcNAc", "how_it_was_run": "as §1"}, "[3]": {"biological_target": "Gal(b1-4)GlcNAc(b1-3)Gal(b1-4)GlcNAc(b1-3)Gal(b1-4)GlcNAc(b1-3)Gal(b1-4)GlcNAc(b1-3)Gal(b1-4)GlcNAc(b1-2)Man(a1-3)[Gal(b1-4)GlcNAc(b1-3)Gal(b1-4)GlcNAc(b1-3)Gal(b1-4)GlcNAc(b1-3)Gal(b1-4)GlcNAc(b1-3)Gal(b1-4)GlcNAc(b1-2)Man(a1-6)]Man(b1-4)GlcNAc(b1-4)[Fuc(a1-6)]GlcNAc", "how_it_was_run": "as §1"}, "[4]": {"biological_target": "Gal(b1-4)GlcNAc(b1-3)Gal(b1-4)GlcNAc(b1-3)Gal(b1-4)GlcNAc(b1-3)Gal(b1-4)GlcNAc(b1-3)Gal(b1-4)GlcNAc(b1-2)[Gal(b1-4)GlcNAc(b1-3)Gal(b1-4)GlcNAc(b1-3)Gal(b1-4)GlcNAc(b1-3)Gal(b1-4)GlcNAc(b1-3)Gal(b1-4)GlcNAc(b1-6)]Man(a1-6)[Gal(b1-4)GlcNAc(b1-3)Gal(b1-4)GlcNAc(b1-3)Gal(b1-4)GlcNAc(b1-3)Gal(b1-4)GlcNAc(b1-3)Gal(b1-4)GlcNAc(b1-2)Man(a1-3)]Man(b1-4)GlcNAc(b1-4)[Fuc(a1-6)]GlcNAc", "how_it_was_run": "as §1"}, "[5]": {"biological_target": "Gal(b1-4)GlcNAc(b1-3)Gal(b1-4)GlcNAc(b1-3)Gal(b1-4)GlcNAc(b1-3)Gal(b1-4)GlcNAc(b1-3)Gal(b1-4)GlcNAc(b1-3)Gal(b1-4)GlcNAc(b1-2)Man(a1-3)[Gal(b1-4)GlcNAc(b1-3)Gal(b1-4)GlcNAc(b1-3)Gal(b1-4)GlcNAc(b1-3)Gal(b1-4)GlcNAc(b1-3)Gal(b1-4)GlcNAc(b1-3)Gal(b1-4)GlcNAc(b1-2)Man(a1-6)]Man(b1-4)GlcNAc(b1-4)GlcNAc", "how_it_was_run": "as §1"}, "[6]": {"biological_target": "Gal(b1-4)GlcNAc(b1-3)Gal(b1-4)GlcNAc(b1-3)GalNAc", "how_it_was_run": "as §1"}, "[7]": {"biological_target": "Gal(b1-4)GlcNAc(b1-3)Gal(b1-4)GlcNAc(b1-3)[Gal(b1-4)GlcNAc(b1-3)Gal(b1-4)GlcNAc(b1-6)]GalNAc", "how_it_was_run": "as §1"}, "[8]": {"biological_target": "Gal(b1-4)GlcNAc(b1-3)Gal(b1-4)GlcNAc(b1-6)[Gal(b1-3)]GalNAc", "how_it_was_run": "as §1"}, "[9]": {"biological_target": "Gal(b1-4)GlcNAc(b1-3)Gal(b1-4)[Fuc(a1-3)]GlcNAc(b1-3)Gal(b1-4)[Fuc(a1-3)]GlcNAc", "how_it_was_run": "as §1"}, "[10]": {"biological_target": "Gal(b1-4)GlcNAc(b1-3)GalNAc", "how_it_was_run": "as §1"}, "[11]": {"biological_target": "Gal(b1-4)GlcNAc(b1-3)[Fuc(a1-3)GlcNAc(b1-6)]Gal(b1-4)Glc", "how_it_was_run": "as §1"}, "[12]": {"biological_target": "Gal(b1-4)GlcNAc(b1-3)[Gal(b1-4)GlcNAc(b1-6)]Gal(b1-4)GlcNAc", "how_it_was_run": "as §1"}, "[13]": {"biological_target": "Gal(b1-4)GlcNAc(b1-3)[GlcNAc(b1-6)]Gal(b1-4)GlcNAc", "how_it_was_run": "as §1"}, "[14]": {"biological_target": "Gal(b1-4)GlcNAc(b1-6)Gal(b1-4)GlcNAc", "how_it_was_run": "as §1"}, "[15]": {"biological_target": "Gal(b1-4)GlcNAc(b1-6)GalNAc", "how_it_was_run": "as §1"}, "[16]": {"biological_target": "Gal(b1-4)GlcNAc(b1-6)[Gal(b1-3)]GalNAc", "how_it_was_run": "as §1"}, "[17]": {"biological_target": "Gal(b1-4)GlcNAc(b1-6)[Gal(b1-4)GlcNAc(b1-3)]GalNAc", "how_it_was_run": "as §1"}, "[18]": {"biological_target": "Gal(b1-4)GlcNAc6P", "how_it_was_run": "as §1"}, "[19]": {"biological_target": "Gal(b1-6)Gal", "how_it_was_run": "as §1"}, "[20]": {"biological_target": "Gal3S(b1-3)GalNAc", "how_it_was_run": "as §1"}, "[21]": {"biological_target": "Gal3S(b1-3)GlcNAc", "how_it_was_run": "as §1"}, "[22]": {"biological_target": "Gal3S(b1-3)[Fuc(a1-4)]GlcNAc", "how_it_was_run": "as §1"}, "[23]": {"biological_target": "Gal3S(b1-4)Glc", "how_it_was_run": "as §1"}},
  "note": "The other results are listed elsewhere or left out.",
  "data": [
    {"binder": "Pbx1CASH domain (Cryptococcus neoformans) (protein) MDETKPLWGNPRADGISLACKDSIVERNVVYDATDGAIVLFGSAGSTVKNNHVYARTRVILGGINLVDYEPWDGDYTNVKVHHNHLYALGRYFKVGIVIGPASWSDDTESVVHSASVTDNEFSGGYWGYGIVVASAKNFEVLRNKVIWDGEQGVARFSGVPGS", "values": [
      {"measurement": "glycan array binding signal (z-score)", "setting": "[1]", "value": -0.458},
      {"measurement": "glycan array binding signal (z-score)", "setting": "[2]", "value": -0.019},
      {"measurement": "glycan array binding signal (z-score)", "setting": "[3]", "value": -0.419},
      {"measurement": "glycan array binding signal (z-score)", "setting": "[4]", "value": -0.397},
      {"measurement": "glycan array binding signal (z-score)", "setting": "[5]", "value": 0.91},
      {"measurement": "glycan array binding signal (z-score)", "setting": "[6]", "value": 2.28},
      {"measurement": "glycan array binding signal (z-score)", "setting": "[7]", "value": 4.67},
      {"measurement": "glycan array binding signal (z-score)", "setting": "[8]", "value": 2.73},
      {"measurement": "glycan array binding signal (z-score)", "setting": "[9]", "value": -0.319},
      {"measurement": "glycan array binding signal (z-score)", "setting": "[10]", "value": -0.508},
      {"measurement": "glycan array binding signal (z-score)", "setting": "[11]", "value": 0.63},
      {"measurement": "glycan array binding signal (z-score)", "setting": "[12]", "value": -0.937},
      {"measurement": "glycan array binding signal (z-score)", "setting": "[13]", "value": -0.595},
      {"measurement": "glycan array binding signal (z-score)", "setting": "[14]", "value": -0.145},
      {"measurement": "glycan array binding signal (z-score)", "setting": "[15]", "value": -0.497},
      {"measurement": "glycan array binding signal (z-score)", "setting": "[16]", "value": -0.463},
      {"measurement": "glycan array binding signal (z-score)", "setting": "[17]", "value": 0.617},
      {"measurement": "glycan array binding signal (z-score)", "setting": "[18]", "value": -0.546},
      {"measurement": "glycan array binding signal (z-score)", "setting": "[19]", "value": 1.21},
      {"measurement": "glycan array binding signal (z-score)", "setting": "[20]", "value": -0.209},
      {"measurement": "glycan array binding signal (z-score)", "setting": "[21]", "value": -0.497},
      {"measurement": "glycan array binding signal (z-score)", "setting": "[22]", "value": -0.138},
      {"measurement": "glycan array binding signal (z-score)", "setting": "[23]", "value": -0.695}
    ]}
  ]
}
